PubChem BioAssay AID504744 | Drosophila RNAi Screening Center, 2011

Test: 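Find genes whose loss alters insulin-driven dAkt phosphorylation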 (primary screen)
System: Drosophila Kc167 cells
Knock-down reagent: long dsRNA against Drosophila genes, 250 ng dsRNA per well of a 384-well plate
Timing: 3 days of knock-down, then overnight serum-free starvation before stimulation
Challenge: bovine insulin at 387 nM for 10 minutes after 12 h without serum
Read-out: 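Per-well phospho-dAkt level from an in-cell fluorescent antibody stain, divided by a DNA-dye signal; log2 residuals turned into z-scores that take cell number into account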
Rule for the call: 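Hit in the insulin screen when the two-replicate mean z-score is more extreme than plus or minus 2.5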
In all, the deposit lists about 23,000 reagents; this is a random part of those with a known target gene and a result. In the full data, 98 (0.43%) are marked active. 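Only hit calls are given; the phospho-dAkt signals, z-scores and hit direction were not deposited.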 Names joined by + are all predicted targets of the reagent.

| gene | amplicon | call |
| --- | --- | --- |
| Taf12L | DRSC00467 | inactive |
| MED11 | DRSC10739 | inactive |
| CG16853 | DRSC01877 | inactive |
| Gsc | DRSC00755 | inactive |
| CG33299 | DRSC01085 | inactive |
| Gbp3 | DRSC15206 | inactive |
| AdamTS-B | DRSC18346 | inactive |
| CG5986 | DRSC15931 | inactive |
| CG32425 | DRSC11739 | inactive |
| CG32425 | DRSC11764 | inactive |
| Vm32E | DRSC03474 | inactive |
| Adat1 | DRSC03479 | inactive |
| Afti | DRSC16440 | inactive |
| CG1902 | DRSC06798 | inactive |
| aln | DRSC08240 | inactive |
| CG13138 | DRSC02235 | inactive |
| Pp1alpha-96A | DRSC16795 | inactive |
| ich | DRSC12715 | inactive |
| ich | DRSC14448 | inactive |
| CG18284 | DRSC02661 | inactive |
| CG18284 | DRSC20756 | inactive |
| Cyp4ae1 | DRSC18455 | inactive |
| STUB1 | DRSC03282 | inactive |
| Gga | DRSC18260 | inactive |
| CG18301 | DRSC02662 | inactive |
| CG32212 + hpRNA:CR33940 | DRSC09618 | inactive |
| Doc2 | DRSC22716 | inactive |
| Magi | DRSC04247 | inactive |
| Magi | DRSC04451 | inactive |
| CG11698 | DRSC14355 | inactive |
| CG15239 | DRSC17972 | inactive |
| CG31819 | DRSC01532 | inactive |
| Or98b | DRSC16775 | inactive |
| Or98b | DRSC21751 | inactive |
| RagA-B | DRSC14450 | inactive |
| btd | DRSC18747 | inactive |
| CG7987 | DRSC16357 | inactive |
| Pgant6 | DRSC08552 | inactive |
| CG30083 | DRSC05572 | inactive |
| CG10395 | DRSC04840 | inactive |
| alpha-Spec | DRSC08704 | inactive |
| CG4045 | DRSC18518 | inactive |
| CG33251 (retired record) + CG9915 | DRSC20217 | inactive |
| Hexo2 | DRSC18671 | inactive |
| CG15765 | DRSC18071 | inactive |
| Rbbp5 | DRSC11778 | inactive |
| trol | DRSC17714 | inactive |
| trol | DRSC17718 | inactive |
| trol | DRSC18613 | inactive |
| trol | DRSC18814 | inactive |
| CG7131 | DRSC16203 | inactive |
| car | DRSC20316 | inactive |
| LBR | DRSC04298 | inactive |
| lectin-21Cb | DRSC00355 | inactive |
| CG33177 | DRSC19949 | inactive |
| TwdlB | DRSC16050 | inactive |
| Rpp21 | DRSC22480 | inactive |

Next part (13 carried over from the part before).
| gene | amplicon | call |
| --- | --- | --- |
| CG15765 | DRSC18071 | inactive |
| Rbbp5 | DRSC11778 | inactive |
| trol | DRSC17714 | inactive |
| trol | DRSC17718 | inactive |
| trol | DRSC18613 | inactive |
| trol | DRSC18814 | inactive |
| CG7131 | DRSC16203 | inactive |
| car | DRSC20316 | inactive |
| LBR | DRSC04298 | inactive |
| lectin-21Cb | DRSC00355 | inactive |
| CG33177 | DRSC19949 | inactive |
| TwdlB | DRSC16050 | inactive |
| Rpp21 | DRSC22480 | inactive |
| CG32808 | DRSC17689 | inactive |
| CG15841 (retired record) + Acp33A | DRSC01859 | inactive |
| PAN2 | DRSC07115 | inactive |
| POSH | DRSC07499 | inactive |
| Krn | DRSC11202 | inactive |
| CG1647 | DRSC15134 | inactive |
| CG14731 | DRSC14952 | inactive |
| Pus1 | DRSC15548 | inactive |
| Sin1 | DRSC05965 | active |
| CG13926 | DRSC08395 | inactive |
| Mdh2 (retired record) | DRSC16361 | inactive |
| CG7049 | DRSC08587 | inactive |
| CG30429 | DRSC04040 | inactive |
| Mur18B | DRSC20063 | inactive |
| Lgr4 | DRSC18969 | inactive |
| Lgr4 | DRSC18970 | inactive |
| Lgr4 | DRSC19884 | inactive |
| beta-Spec | DRSC20311 | inactive |
| mtg | DRSC16256 | inactive |
| MED25 | DRSC14483 | inactive |
| Spn42Da | DRSC05025 | inactive |
| CG9628 | DRSC11082 | inactive |
| Teh4 | DRSC08457 | inactive |
| Cpr5C | DRSC18340 | inactive |
| CG13318 | DRSC14581 | inactive |
| MYPT-75D | DRSC10743 | inactive |
| CG13036 (retired record) | DRSC09916 | inactive |
| CG15387 | DRSC00401 | inactive |
| CG9286 | DRSC16467 | inactive |
| timeout | DRSC12950 | inactive |
| timeout | DRSC17078 | inactive |
| timeout | DRSC17079 | inactive |
| timeout | DRSC17080 | inactive |
| timeout | DRSC17081 | inactive |
| timeout | DRSC21535 | inactive |
| Sgs8 | DRSC11282 | inactive |
| Neb-cGP | DRSC17991 | inactive |
| sun | DRSC20140 | inactive |
| CG32713 | DRSC22766 | inactive |
| CG7164 | DRSC03018 | inactive |
| CG32264 | DRSC08061 | inactive |
| CG32264 | DRSC08167 | inactive |
| CG32264 | DRSC08169 | inactive |
| CG32264 | DRSC08285 | inactive |
| CG32264 | DRSC08437 | inactive |
| RpS17 | DRSC11271 | inactive |
| CG15531 | DRSC15068 | inactive |
| D1 | DRSC16638 | inactive |
| CG31104 | DRSC14658 | inactive |
| Mocs1 | DRSC11225 | inactive |
| CG13323 | DRSC06360 | inactive |
| Spn43Ab | DRSC06781 | inactive |
| CG31522 | DRSC12005 | inactive |
| CG33284 | DRSC22905 | inactive |
| SamDC | DRSC03429 | inactive |
| CG31467 | DRSC16048 | inactive |
| Vha36-3 | DRSC18615 | inactive |
| peb | DRSC18817 | inactive |
| lds | DRSC16988 | inactive |
| IntS14 | DRSC00668 | inactive |
| Tehao | DRSC03449 | inactive |
| mfas | DRSC16997 | inactive |
| Rab26 | DRSC11837 | inactive |
| Rab26 | DRSC11838 | inactive |
| Rab26 | DRSC11839 | inactive |
| lncRNA:CR30009 | DRSC22952 | inactive |
| ktub | DRSC04551 | inactive |
| CG8531 | DRSC07209 | inactive |
| CG14075 | DRSC10080 | inactive |
| CG32568 | DRSC19913 | inactive |
| Ugt303B1 | DRSC15141 | inactive |
| Rab3GAP1 | DRSC00291 | inactive |
| Rab3GAP1 | DRSC00703 | inactive |
| GrlHz | DRSC04424 | inactive |
| RpL18A | DRSC07538 | inactive |
| CG14427 | DRSC17921 | inactive |
| Abp1 | DRSC09693 | inactive |
| CG31482 | DRSC12582 | inactive |
| Amnionless | DRSC00317 | inactive |
| ECSIT | DRSC12348 | inactive |
| dlt | DRSC08705 | inactive |
| Gnpnat | DRSC15405 | inactive |
| fwe | DRSC09398 | inactive |
| fwe | DRSC10594 | inactive |
| fwe | DRSC21400 | inactive |
| mRpS17 | DRSC04463 | inactive |
| Pif1 | DRSC00582 | inactive |
| CG7029 | DRSC16177 | inactive |
| CG15472 | DRSC18055 | inactive |
| Fuca | DRSC10591 | inactive |
| CG1552 | DRSC19665 | inactive |
| Cyp6d2 | DRSC04606 | inactive |
| CheA29a | DRSC21486 | inactive |
| cdm | DRSC16213 | inactive |
| CG18223 | DRSC10306 | inactive |
| Pgk | DRSC00769 | inactive |
| Fam92 | DRSC02952 | inactive |
| Tat | DRSC19602 | inactive |
| CG6044 | DRSC04522 | inactive |
| Ir41a | DRSC04730 | inactive |
| Ir41a | DRSC04875 | inactive |
